± gives the standard deviation of the averaged measurements. Over roughly 3,800 compounds, “cell shape (eccentricity) Z-score vs DMSO control” has its median near 1.1; the lowest 2% begin near -4.7. Some of the results follow. Starred links: 1 amine or outer side, 2 acyl side, 3 side chain; linkers in the order of their positions; H or OH if unused. Positions of bridges follow the written chain, without caps; N, C: chain ends. Non-standard residues stand in square brackets, D forms with d. Residues, ends and D or L forms follow the SMILES beside them. Chains are numbered I, II in the order given. Actinocin(1to9) = Cc1c2oc3c(C)ccc(C(=O)[*:2])c3nc-2c(C(=O)[*:1])c(N)c1=O; NMeV = CN[CH](C(=O)O)C(C)C; Sar = CNCC(=O)O

In this test the test system is human monocyte-derived macrophages (M0). The experiment in a line: cell shape (eccentricity) Z-score vs DMSO control; higher = more elongated, M2-like morphology. Conditions: 20 µM; 24 h; macrophage state: M0 (M-CSF).
In the case of `C/C=C1/[C@H](O[C@@H]2O[C@H](CO)[C@@H](O)[C@H](O)[C@H]2O)OC=C(C(=O)OC)[C@H]1CC(=O)OCCc1ccc(O)cc1`, the “cell shape (Z-score)” value is -0.322.

For the compound `COC(=O)C(C(CO)Cc1ccc(O)c(OC)c1)C(O)c1ccc(O)c(OC)c1` (stereo not drawn), the “cell shape (Z-score)” value stood at 2.77.

Regarding `CSCC1OC(n2cnc3c(=O)[nH]cnc32)C(O)C1O` (stereo not drawn), the “cell shape (Z-score)” value was 1.09 ± 1.1.

`O=c1oc2ccccc2c(O)c1Cc1c(O)c2ccccc2oc1=O`: the “cell shape (Z-score)” value stood at 0.779.

Turning to `CC#CCOC(=O)c1c(C)nc2sc3c(c2c1N)CCC(O)C3` (stereo not drawn), the “cell shape (Z-score)” value was -0.105.

For the compound `Nc1ccccc1NC(=O)c1ccc(CNC(=O)OCc2cccnc2)cc1`, the “cell shape (Z-score)” value is -10.6 ± 0.74.

`COc1cccc(OC)c1OCCNCC1COc2ccccc2O1` (stereo not drawn): the “cell shape (Z-score)” value was determined as 2.21.

Turning to `c1ccc2sc(SN3CCOCC3)nc2c1`, the “cell shape (Z-score)” value was 0.316.

As to `O=C(O)c1ccc(NCc2nc3cc4ccccc4cc3[nH]2)cc1`, the “cell shape (Z-score)” value was 1.43.

As for `CC[C@H](C)C(=O)O[C@H]1CCC=C2C=C[C@H](C)[C@H](CC[C@@H]3C[C@@H](O)CC(=O)O3)[C@H]21`, the “cell shape (Z-score)” value came to 0.701.

Regarding `NC(=O)Cc1cccc(C(=O)c2ccccc2)c1N`, the “cell shape (Z-score)” value worked out at 2.

For `C[C@H]1COC2=C1C(=O)C(=O)c1c2ccc2c1CCCC2(C)C`, the “cell shape (Z-score)” value came to 3.51.

For `COc1cc(/C=C(\C#N)C(N)=O)cc(CSc2nc3ccccc3s2)c1O`, the “cell shape (Z-score)” value was 3.81.

`Cc1ccc2ccc3ccc(C)nc3c2n1`: the “cell shape (Z-score)” value came to 3.48.

With `COc1ccccc1N1CCN(CC2CN3C(=O)N(C)c4ccccc4C3=N2)CC1` (stereo not drawn), the “cell shape (Z-score)” value is 0.841.

In the case of `COc1cc(/C=C/C(=O)N2CCC=CC2=O)cc(OC)c1OC`, the “cell shape (Z-score)” value was 4.86.

As to `COc1[nH]c2ccc(F)cc2c1C(=O)OCC1CCN(CCNS(C)(=O)=O)CC1`, the “cell shape (Z-score)” value came to 1.97.

Turning to `Cn1cnc2c(F)c(Nc3ccc(Br)cc3Cl)c(C(=O)NOCCO)cc21`, the “cell shape (Z-score)” value came to 0.153.

On to `CCCCOC(=O)c1ccc(N)cc1`, for which the “cell shape (Z-score)” value turned out to be 6.92.

For the compound `NCCCCCCNS(=O)(=O)c1ccc2c(Cl)cccc2c1`, the “cell shape (Z-score)” value is -0.418.

For `Cc1cccc(C)c1OCC(=O)N[C@@H](Cc1ccccc1)[C@@H](O)C[C@H](Cc1ccccc1)NC(=O)[C@H](C(C)C)N1CCCNC1=O`, the “cell shape (Z-score)” value came out at 0.149.

`CC(C)COCC(CN(Cc1ccccc1)c1ccccc1)N1CCCC1` (stereo not drawn): the “cell shape (Z-score)” value was found to be 0.498.

As for `CC(C)c1ccc(C(=O)c2cccs2)c(SCCCCCCCCN(C)C)n1`, the “cell shape (Z-score)” value was found to be 0.0629.

On to `O=c1c(-c2ccc(O)cc2)coc2c(C3O[C@H](CO)[C@@H](O)[C@H](O)[C@H]3O)c(O)ccc12` (stereo partly drawn), for which the “cell shape (Z-score)” value came to 1.95.

As to `C[C@@H]1CC[C@]2(C(=O)O[C@@H]3O[C@H](CO)[C@@H](O)[C@H](O)[C@H]3O)CC[C@]3(C(=O)O)C(=CCC4[C@@]5(C)CC[C@H](OC6OC[C@@H](O)[C@H](O)[C@H]6O)C(C)(C)C5CC[C@]43C)C2[C@H]1C` (stereo partly drawn), the “cell shape (Z-score)” value is 0.774.

Take `CC(=O)O[C@H]1CC[C@@]2(C)C(C[C@@H](OC(C)=O)[C@]3(C)C2CC[C@@]2(C)[C@H](c4ccoc4)OC(=O)[C@H]4O[C@]423)C1(C)C` (stereo partly drawn): the “cell shape (Z-score)” value was -2.07.

On to `NS(=O)(=O)c1cc2c(cc1Cl)N=CNS2(=O)=O`, for which the “cell shape (Z-score)” value is 2.11.

With `CC1CCC(O)C2C=CC(C)(O)C(C)(C(=O)CCO)C12` (stereo not drawn), the “cell shape (Z-score)” value worked out at 0.182.

On to `C=C1C(=O)O[C@H]2[C@H]1[C@@H](OC(=O)C(C)CO)C[C@@]1(C)[C@H](O)CCC(=O)[C@H]21` (stereo partly drawn), for which the “cell shape (Z-score)” value was found to be 1.16.

For `C=CC1CN(C=O)CCC1CCC(=O)c1ccnc2ccccc12` (stereo not drawn), the “cell shape (Z-score)” value was determined as 0.457.

Consider `CCn1c(=O)[nH]c2cc(Cl)c(Cl)cc21`, for which the “cell shape (Z-score)” value was found to be 4.06.

For the compound `C=C(Oc1cccc(C(=O)O)c1)C(=O)O`, the “cell shape (Z-score)” value is -2.01 ± 5.5.

As to `Cc1cc(C(C)Nc2ccccc2)c2nc(N3CCOCC3)cc(=O)n2c1` (stereo not drawn), the “cell shape (Z-score)” value turned out to be 3.96.

As for `COc1cc(C2Oc3c(O)ccc([C@@H]4Oc5cc(O)cc(O)c5C(=O)[C@H]4O)c3C2CO)ccc1O` (stereo partly drawn), the “cell shape (Z-score)” value turned out to be 0.851.

For `CC(=O)O[C@H]1C[C@@H](O)C(C)(C)C2C[C@@H](OC(C)=O)[C@]3(C)C(CC[C@@]4(C)[C@H](c5ccoc5)OC(=O)C5OC543)[C@]21C` (stereo partly drawn), the “cell shape (Z-score)” value was -2.78.

As to `COC(=O)C1=CO[C@@H](O[C@@H]2O[C@H](CO)[C@@H](O)[C@H](O)[C@H]2O)[C@H]2[C@@H]1[C@H](OC(C)=O)C[C@]2(C)O`, the “cell shape (Z-score)” value was found to be 2.06 ± 0.066.

For the compound `NCC(O)(CS(=O)(=O)O)c1ccc(Cl)cc1` (stereo not drawn), the “cell shape (Z-score)” value turned out to be 1.44.

As for `COc1ccc2oc(-c3ccccc3)c(OC)c(=O)c2c1`, the “cell shape (Z-score)” value is 4.37.

Take `COc1ccc2[nH]c(-c3ccccc3)c(CCNC(C)=O)c2c1`: the “cell shape (Z-score)” value came to 0.107.

`Nc1nc(N)nc(-c2cc(Cl)ccc2Cl)n1`: the “cell shape (Z-score)” value is -0.761.

In the case of `C#C[C@]1(O)CCC2C3CCC4=Cc5oncc5C[C@]4(C)C3CC[C@@]21C` (stereo partly drawn), the “cell shape (Z-score)” value was found to be 3.49.

For `C[C@H]1CC2C3CCC4=CC(=O)C=C[C@]4(C)[C@@]3(F)[C@@H](O)C[C@]2(C)[C@@]1(O)C(=O)CO` (stereo partly drawn), the “cell shape (Z-score)” value is 0.526.

With `COc1ccc([C@H]2OC[C@H]3[C@@H]2CO[C@@H]3c2ccc(O[C@@H]3O[C@H](CO)C(O)[C@H](O)[C@H]3O)c(OC)c2)cc1OC` (stereo partly drawn), the “cell shape (Z-score)” value came to 2.29.

Take `O=C1C[C@@H](c2ccc(O)cc2)Oc2cc(O)c([C@@H]3O[C@H](CO)[C@@H](O)[C@H](O)[C@H]3O)c(O)c21`: the “cell shape (Z-score)” value amounted to 1.77.

As for `Cc1c(C(N)=O)cc([N+](=O)[O-])cc1[N+](=O)[O-]`, the “cell shape (Z-score)” value was 8.1.

Take `COC1=CC(=O)OC1C(O)C(O)C(OC(C)=O)c1ccccc1` (stereo not drawn): the “cell shape (Z-score)” value was -0.0114.

With `CC[C@H](C)/C=C(C)/C=C/C(=O)Cc1cc(O)c(C)c(O)c1C=O`, the “cell shape (Z-score)” value was -1.16.

As for `Cc1c2oc3c(C)ccc(C(=O)OC(C)C4NC(=O)C(C(C)C)N(C)C(=O)CN(C)C(=O)C5CCCN5C(=O)C(C(C)C)NC4=O)c3nc-2c(C(=O)OC(C)C2NC(=O)C(C(C)C)N(C)C(=O)CN(C)C(=O)C3CCCN3C(=O)C(C(C)C)NC2=O)c(N)c1=O` (stereo not drawn) (I: cyclo([Sar][NMeV]TVP) / II: cyclo([Sar][NMeV]TVP); linker I:3-II:3 via Actinocin(1to9); configuration not given here), the “cell shape (Z-score)” value was found to be 2.12.

With `CCCCCCN(CCCCCC)C(=O)Cc1c(-c2ccc(Cl)cc2)[nH]c2ccc(Cl)cc12`, the “cell shape (Z-score)” value is 0.844.

Take `CN(C)C(=O)C(CCN1CCC(O)(c2ccc(Cl)cc2)CC1)(c1ccccc1)c1ccccc1`: the “cell shape (Z-score)” value was 2.14.

As for `C[C@H](CO)N1C[C@H](C)[C@H](CN(C)CC2CC2)Oc2ccc(NS(=O)(=O)c3cn(C)cn3)cc2C1=O`, the “cell shape (Z-score)” value amounted to 1.97.

Consider `CC(C)c1cc(/C=C(\C#N)C(=O)NCCCc2ccccc2)cc(C(C)C)c1O`, for which the “cell shape (Z-score)” value amounted to 2.76.

In the case of `CC(C)[C@H](CO)Nc1nc(Nc2cccc(Cl)c2)c2ncn(C(C)C)c2n1`, the “cell shape (Z-score)” value came to 3.21.
